## Library screen at single concentrations

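Assay of Toxoplasma gondii numbers, read through their beta-galactosidase reporter with a colour substrate. Concentration: 50 µM. Higher reads as fewer parasites (inferred from which compounds were picked for retests). About 18,000 compounds were tested under these conditions; 0.94% (about 170) showed 50% or more at least once.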

Values are the deposited “Percent Effect”, in %.
The record does not define 0% and 100%; most values in the screen are far below 50% and negative numbers occur (in some assays of this library far below -100).
The compounds are a random part of those screened.

CN(C)S(=O)(=O)c1cccc2nsnc12 read 22.28%. With Nc1[nH]ncc1CCCO the screen gave 2.978%. With O=C(c1ccccc1F)N1C[C@H]2CNC[C@H]2C1 the screen gave 0.4673%. FC(F)CC1COCCN1 (configuration not stated) read -21.48%. Result for COCC(CCO)NC(=O)CCCc1ccccc1 (configuration not stated) was -0.5779%.

With NC(=O)C1CCN(C(=O)C2CCOCC2)CC1 the screen gave 10.5%. Cn1c(=O)[nH]c2ccc(F)cc21 read -0.5133%. For CCOc1cc(C(=O)NCc2ncc[nH]2)cc(Cl)c1O the result was 1.422%. CCN(CC(C)C#N)S(=O)(=O)c1ncn(C)c1Cl (configuration not stated) read 2.137%. For CC(C)CC(=O)Nc1ccc2[nH]c(=O)c(=O)[nH]c2c1 the result was -2.341%.

Result for CC(C)n1cnc(S(=O)(=O)NCC2CCCCN2)c1 (configuration not stated) was -5.152%. O=C(NC1=NCCS1)c1csc(Br)c1 read -12.81%. With CCOc1ccc(Cn2cccc(C)c2=O)nc1 the screen gave -9.171%. Result for CN(C)CCO[C@H]1CCOC[C@H]1NC(=O)c1cc[nH]c1 was -7.768%. With O=C1CCCCCCN1CC(=O)N1CCCS1(=O)=O the screen gave 4.406%.

With CO[C@@H](C(=O)NCCC1=CCOCC1)c1ccccc1 the screen gave 9.824%. Result for CC(C)(O)c1nnc(N)o1 was -6.696%. COC(=O)c1cc(NC(=O)CN(C)C)ccc1C read -10.65%. For NCc1ccncc1OCC(F)(F)F the result was 19.9%. Result for CN(C(=O)COCC1CC1)c1nc2ccccc2n1C was 0.3763%.

CCNCCCNCc1ccc2c(c1)n(C)c(=O)n2C read 0.7261%. COc1ccc(CC2CCN2)cc1 (configuration not stated) read 13.29%. With CC(C)SCC(=O)N(C)C(C)c1ccncc1 (configuration not stated) the screen gave -0.7816%. Result for CCc1nc(CN[C@H](CO)C(C)C)no1 was 3.083%. Cc1cc(NC(=O)NCC(O)c2ccccc2F)no1 (configuration not stated) gave -3.485%.

For CC(C)CN1CCN(C(=O)CN2CCOCC2)CC1 the result was -2.126%. With CC(O)C(=O)N1CCN(c2ccc(C#N)nc2)CC1 (configuration not stated) the screen gave -9.875%. For OCCCNC1(c2nccs2)CCCC1 the result was -5.632%. With Cn1ccnc1C(NC(=O)c1cnc(O)cn1)C1CC1 (configuration not stated) the screen gave 2.312%. CN(C)C(=O)c1ccc(N)nn1 read -12.89%.

Result for COC(=O)CNC(=O)NC(C)C was -4.593%. CN(C)C1CCN(c2ccc(N)nc2)C1 (configuration not stated) read -6.025%. With N#Cc1cnc(NCC2(O)CCC2)cn1 the screen gave -4.44%. CS(=O)(=O)CCNC(=O)NCc1ccc(C#N)cc1F read 4.41%. O=C(c1c(F)cccc1F)N1CCNCC1 read -3.487%.

Result for CNS(=O)(=O)C1CCCN(c2ncc(Cl)cn2)C1 (configuration not stated) was -0.4395%. For CC1C(=O)NCCCN1C(=O)NCc1ccsc1Br (configuration not stated) the result was 1.524%. CN(CC(N)=O)C(=O)CCc1nc2ccccc2s1 gave 5.07%. CN(C)C(CNC(=O)NCc1cc[nH]n1)c1ccsc1 (configuration not stated) read 1.818%. For Cc1noc(C)c1S(=O)(=O)N(C)Cc1ccoc1 the result was -13.17%.

With CN(C)C(=O)NCCNC(=O)NCc1ccco1 the screen gave -3.248%. Result for COCCc1noc([C@@H]2CN(CC(C)C)C[C@H]2CO)n1 was -21.61%. Result for CCOC(=O)C(O)c1cc(Br)c2c(c1)OCO2 (configuration not stated) was 60.1%. Result for CC(C)N1CCC(C(=O)NCCc2cnccn2)CC1 was -6.939%. For Cc1nsc(NC(=O)N2CCC(N)CC2)n1 the result was -1.011%.

Result for COCCCN1CCN(Cc2ccc(Cl)cn2)CC1 was -4.1%. Cc1cc(NC(=O)C2=NN(C)C(=O)CC2)n(C)n1 gave -7.895%. Cn1cc(N)cc(Cl)c1=O gave 3.354%. For CC[S+]([O-])CC(=O)NCCc1nc2c(s1)CCCC2 (configuration not stated) the result was -0.5428%. COc1ccc(NC(=O)COc2ccccc2F)cn1 gave -3.272%.

CN(C)c1ccc(CN2CCN(C)C(CO)C2)cn1 (configuration not stated) gave 21.18%.

Source: ChEMBL document CHEMBL3988442, “University of Dundee, Small-Polar-MMV Screening Library” (2021).